Test results: PubChem BioAssay AID1508615 (Milbrandt Lab, Department of Genetics, Washington …, 2020)
Hit rate of the full screen: of about 1,600 compounds, about 20 (1%) were called active.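 The calls were made as follows: active = ratio of uncleaved NAD to its breakdown product ADP-ribose above 4, meaning the enzyme was inhibited; inactive = the rest.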 This is one part of the list.

Protein sequences, listed by entry. Tags and fused reporters are not part of them. Lines headed by an entry give the natural chain unless they say otherwise; changes in a name come on top.
UniProt Q6SZW1: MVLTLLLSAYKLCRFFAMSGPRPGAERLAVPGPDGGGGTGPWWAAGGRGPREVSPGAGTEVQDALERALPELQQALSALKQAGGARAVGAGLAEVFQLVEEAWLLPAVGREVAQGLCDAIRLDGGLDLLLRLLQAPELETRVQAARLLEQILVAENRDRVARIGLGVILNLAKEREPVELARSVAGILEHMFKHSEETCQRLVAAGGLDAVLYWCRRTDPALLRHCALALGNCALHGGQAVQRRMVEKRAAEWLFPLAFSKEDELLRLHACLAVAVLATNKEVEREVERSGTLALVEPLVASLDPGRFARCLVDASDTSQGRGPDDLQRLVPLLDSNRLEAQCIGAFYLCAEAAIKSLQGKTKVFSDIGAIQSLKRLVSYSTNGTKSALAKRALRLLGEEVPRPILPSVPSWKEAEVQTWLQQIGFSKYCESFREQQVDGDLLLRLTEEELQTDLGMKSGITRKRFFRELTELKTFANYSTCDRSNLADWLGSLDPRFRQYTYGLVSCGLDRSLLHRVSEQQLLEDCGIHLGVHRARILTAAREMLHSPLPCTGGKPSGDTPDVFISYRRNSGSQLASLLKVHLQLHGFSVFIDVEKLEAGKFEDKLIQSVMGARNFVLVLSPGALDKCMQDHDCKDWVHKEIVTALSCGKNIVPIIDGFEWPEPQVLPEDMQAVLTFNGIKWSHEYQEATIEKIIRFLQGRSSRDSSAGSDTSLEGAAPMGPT

molecular target: NAD(+) hydrolase SARM1 (Homo sapiens) (UniProt Q6SZW1); experiment: SARM1 TIR NADase inhibitors by HPLC, primary screen, cell lysate, HPLC readout (AID 1508615); conditions: HEK293T SAM-TIR lysate, at 5 µM, hits give high values;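 also: substrate NAD at 5 µM with 60 min at 37 °C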

NAD/ADPR ratio, active:
CCOc1ccc(NC(=O)C2CCCN(C)C2)cc1 (configuration not stated) 11.2

NAD/ADPR ratio, inactive:
O=C1C(Cl)=C(NCCc2ccccc2)C(=O)c2ccccc21 3
O=C(O)c1ccc(OCCOc2ccccc2)cc1 3
CNc1nc(SC)n(C)c(=O)c1N=O 3
COc1ccc(Br)c2c1C(=O)CC2 3
CC(C)c1cc(C(C)C)n2nc(N)nc2n1 3
CO/N=C1/C=C(C)C(=O)C(C)=C1C 3
NC(=O)C1=C[C@H]2[C@H]3C=C[C@@]2(O)C(=O)O[C@@H]3O1 3
Cc1nc(Br)c(Br)c(C)c1Br 3
O=C(O)C(=O)Nc1ncn[nH]1 3
O=c1[nH]cnc(CN2CCCCC2)c1O 3
c1ccc(CSc2nnc3c4ccccc4c4ccccc4c3n2)cc1 3
OC1(Cc2ccccc2)CCNCC1 3
Cc1cccnc1NC(=O)c1csnn1 3
CN1CCC=C(C(=O)N2c3ccccc3Sc3ccc(Cl)cc32)C1 3
CC(C)(C)NC(=S)NC(C)(C)C 3
NC(=O)Nc1n[nH]c(-c2ccccc2)n1 3
CC1=CC(=O)CC(C)(C)C1(O)/C=C/C(C)=C/C(=O)O (configuration not stated) 3
N#C/C(=C\c1cc(O)c(O)c(O)c1)C(N)=O 3
Cc1cccc(NC2=C(C#N)C(=O)NC3(CCCC3)S2)c1 3
Clc1nc(Cl)nc(-c2cn(-c3ccccc3)c3ccccc23)n1 3
c1ccc(-c2nc(-c3ccccn3)nc(-c3ccccn3)n2)nc1 3
Nc1ccc(Cn2ccc3c4c(N)nc(N)nc4ccc32)cc1 3
Brc1ccc(N=Nc2ccc3ccccc3n2)cc1 3
O=C(COc1cc(Cl)c(Cl)cc1Cl)Nc1ccc([N+](=O)[O-])cc1Cl 3
CCCNC(=O)c1ccc(S(N)(=O)=O)cc1 3
Cc1ccc(Cl)cc1NC(=O)N(C)CCO 3
Cn1ccc(=Nc2ccc(NC(=O)c3ccc(N=c4ccn(C)c5ccc([N+](=O)[O-])cc45)cc3)cc2)cc1 3
NC(=O)/C(=C\c1ccncc1)c1cccc2ccccc12 3
CCOC(=O)Cc1c[nH]c(=S)[nH]c1=O 3
O=C1c2cccc(Sc3ccccc3)c2C(=O)c2c(Sc3ccccc3)cccc21 3
Cc1cc(=O)[nH]c(N/N=C2/CCCCC2C)n1 (configuration not stated) 3
CC1=CC2=C(C=O)C(=O)[C@](C)(O)[C@@H](O)C2=CO1 3
O=C(OCC1CCC=CO1)C1CCC=CO1 (configuration not stated) 3
Cc1cc(=S)[nH]c(=S)[nH]1 3
Nc1ncnc2c1ncn2C1C=C(CO)C(O)C1O (configuration not stated) 3
S=C(Nc1ccccc1)Nc1nccs1 3
CC1OC(Oc2c(-c3cc(O)c(O)c(O)c3)oc3cc(O)cc(O)c3c2=O)C(O)C(O)C1O (configuration not stated) 3
CCOC(=O)CC1(C)NC(C(=O)O)C(C)(C)S1 (configuration not stated) 3
CS(=O)(=O)Nc1nc2ccccc2[nH]1 3
Cc1c(N2CCCC2)cc2c(c1NC(=O)c1ccccc1Cl)C(C)(C)CC2(C)C 3
Nc1ccc(Br)cc1Br 3
O=c1cc(-c2cccnc2)oc2c1ccc1ccccc12 3
CCCCOc1ccc(Nc2cc(Cl)ccc2C(=O)O)cn1 3
CCOC(=O)C(C#N)C(=N)C1C(=O)OC2CCCCC21 (configuration not stated) 3
Nc1[nH]nc2nc(-c3ccccc3)[nH]c(=O)c12 3
Nc1ncnc2c1ncn2C1OC(COS(N)(=O)=O)C(O)C1O (configuration not stated) 3
S=c1[nH]ccn1-c1ccccc1Cl 3
CN1CCc2ccccc2C1Cc1ccccc1NC(=O)c1sc2ccccc2c1Cl (configuration not stated) 3
NS(=O)(=O)c1ccc(NC2(C(=O)O)CCCC2)cc1 3
CCCCSc1ncnc2[nH]ncc12 3
COCC(=O)OC1CCn2c1nc1c2C(=O)C(C)=C(NC(C)=O)C1=O (configuration not stated) 3
CC(=O)Nc1nc(C)c(CCCOc2ccc([N+](=O)[O-])cc2)c(=O)[nH]1 3
O=C1COc2cccnc2N1 3
CC(=O)CC(=O)Nc1ccc2ccccc2c1 3
CCCCc1c(C)[nH]c(=S)[nH]c1=O 3
CN1CN(C)C(c2ccncc2)=C1c1ccncc1 3
CC(=O)C1CCC2C3CCC4=CC(=O)CC[C@]4(C)[C@@]3(F)C(O)C[C@]12C (some centres not stated) 3
Cc1cc(-n2cnc3c(=O)[nH]cnc32)ccc1N 3
Cc1cc(/C=C2\SC(=S)NC2=O)cc(C)c1O 3
O=C(O)c1ccc(NCc2nc3ccccc3[nH]2)cc1 3
CCC1(C(=O)OC)CCc2c(cc(OC)c3ccccc23)C1=O (configuration not stated) 3
Cc1nnc2nc(N)[nH]n2c1=O 3
CCOC(=O)Nc1c2ccccc2nc2ccccc12 3
CS(=O)(=O)Oc1ccc(Br)c2cccnc12 3
O=C(Nc1ccc2ccccc2c1)c1ccc(Cl)cc1Cl 3
COc1ccc(Cc2nnc(SC)n2-c2ccc(F)cc2)cc1OC 3
CCOC(=O)C1CC(=O)c2cc(OC)c(OC)cc2C1 (configuration not stated) 3
COc1ccc(N=Nc2ccc(N)nc2N)cc1 3
COc1cc(C(=O)C(=O)c2ccc(O)c(OC)c2)ccc1O 3
Oc1ccc(Nc2ccc3ccccc3c2)cc1 3
Cc1nc(C2CCC3C4CCC5=CC(=O)CC[C@]5(C)C4CC[C@]23C)cs1 (some centres not stated) 3
COc1cc2c(=O)n3c4c(cccc4c2cc1OC)CC3 3
COc1ccc(C(C)=O)cc1CO/N=C1\CSCc2ccccc21 3
CCOC(=O)C1C(=O)C(=O)N(C(C)C)C1C(=O)OCC (configuration not stated) 3
Nc1ncc2[nH]c(N)nc2n1 3
O=C(NC1(N2CCOCC2)CC1)c1ccc(Cl)cc1 3
Nc1ncnc2c1cnn2C1CCCCC1 3
Nc1nc2c(ncn2C2CCCC2)c(=O)[nH]1 3
CCCCC(=O)N1CCCC(C)C1 (configuration not stated) 3
CCN(CC)CCNc1c(C)cc(CO)c(Cl)c1C 3
CC(=O)Oc1c(C)c(OC(C)=O)c2c(c1C(C)=O)OC1CC(=O)C(C(C)=O)=C(O)C21C (configuration not stated) 3
Cc1oc2c(c(C)nn2-c2ccccc2)c(=O)c1Cl 3
O=c1cccc2cc(O)c(O)c(O)c2c1O 3
CC(C)NC(=O)Nc1cccc(Cl)c1 3
Cc1c(Cl)cccc1Nc1ncccc1C(=O)OCC(O)CO (configuration not stated) 3
O=C(Nc1cccc(Cl)c1)Nn1cnnc1 3
CCN(CC)c1ccc(C(=C2C=CC(=[N+](CC)CC)C=C2)c2ccc(N(CC)CC)cc2)cc1 3
O=C1C2C3C=CC(O3)C2C(=O)N1Nc1ccccc1 (configuration not stated) 3
FC(F)(F)c1cccc(-c2nc3nc(Cl)c(Cl)nc3[nH]2)c1 3
Cc1ccc(C2C=CC(C#N)=CN2Cc2ccccc2)cc1 (configuration not stated) 3
CCOC(=O)C(=O)Cc1nc2ccccc2s1 3
NC(=O)c1ccc(Cl)c2ccccc12 3
c1ccc(Sc2ncnc3ccccc23)cc1 3
CN(C)C(=O)c1cccc(COc2ccc(N3C(N)=NC(N)=NC3(C)C)cc2Cl)c1 3
O=C(Nc1ccccc1)Nc1ccccn1 3
COC(=O)C1CC(O)C(O)C(O)C1 (configuration not stated) 3
c1ccc2cc(OCCOCCOc3ccc4ccccc4c3)ccc2c1 3
Cc1cc(=O)c2c(=O)[nH][nH]c2[nH]1 3
Nc1ccccc1-c1nc2ccncc2[nH]1 3
CCOC(=O)c1c(O)cc(C)[nH]c1=O 3
c1ccc(-c2cn3ccccc3n2)cc1 3
Oc1ccc(-c2nc3ccccc3s2)c(O)c1 3
CC(=O)Nc1ccc(S(=O)(=O)N/N=c2/sc3ccccc3n2C)cc1N 3
O=C(Nc1ccccc1)Oc1ccc[nH]c1=O 3
CC(=O)CC[N+](C)(C)C 3
O=C(O)c1ccc(N2CCCCC2)cc1O 3
CC1=CC(C)(C(Cl)(Cl)Cl)C(C)=C/C1=N/O (configuration not stated) 3
CC(=O)NCCCOc1ccc([N+](=O)[O-])cc1Cl 3
C(COC1CC2CC1C1C2CC2OC21)OC1CC2CC1C1C2CC2OC21 (configuration not stated) 3
[O-][n+]1nc2ccccc2c2ccccc21 3
C=CCOc1ccc(S(C)(=O)=O)cc1 3
OCc1nc2nc(Cl)c(Cl)nc2[nH]1 3
CCC1(CC)C(=O)NC(=S)N=C1N 3
Cc1nc2ccccc2nc1NS(=O)(=O)c1ccc(N)cc1 3
O=C(Nc1cccc([N+](=O)[O-])c1)c1cccc(C(=O)Nc2cccc([N+](=O)[O-])c2)c1 3
Cc1ccc(N=Nc2ccc(N)cc2C)c(S(N)(=O)=O)c1 3
Cn1ncc2c(Nc3ccccc3Cl)nc(Cl)nc21 3
O=C(Nc1cccc2ccccc12)c1cc2c(cc1Br)OCO2 3
NC(=O)SCC(=O)Nc1ccccc1C(=O)O 3
CN(C)C(=S)/N=c1\ssc(=S)n1Cc1ccco1 3
CCN(CC)C(=O)Cn1ccc(NC(C)=O)nc1=O 3

Some of these compounds in order of count of non-hydrogen atoms, rising.
NAD/ADPR ratio, inactive:
Oc1ccc(Nc2ccc3ccccc3c2)cc1 3
COc1cc(C(=O)C(=O)c2ccc(O)c(OC)c2)ccc1O 3
O=C(COc1cc(Cl)c(Cl)cc1Cl)Nc1ccc([N+](=O)[O-])cc1Cl 3

Quoted from the listing for reference:
NAD/ADPR ratio, inactive:
NS(=O)(=O)c1ccc(NC2(C(=O)O)CCCC2)cc1 3
CCCCSc1ncnc2[nH]ncc12 3
